# PubChem BioAssay (EPA / NIEHS)
# Sequences of proteins named here, by UniProt entry; tags and fusion partners are left off. A change or cut given only in a name is not applied to a line headed by its entry.
# UniProt P04150: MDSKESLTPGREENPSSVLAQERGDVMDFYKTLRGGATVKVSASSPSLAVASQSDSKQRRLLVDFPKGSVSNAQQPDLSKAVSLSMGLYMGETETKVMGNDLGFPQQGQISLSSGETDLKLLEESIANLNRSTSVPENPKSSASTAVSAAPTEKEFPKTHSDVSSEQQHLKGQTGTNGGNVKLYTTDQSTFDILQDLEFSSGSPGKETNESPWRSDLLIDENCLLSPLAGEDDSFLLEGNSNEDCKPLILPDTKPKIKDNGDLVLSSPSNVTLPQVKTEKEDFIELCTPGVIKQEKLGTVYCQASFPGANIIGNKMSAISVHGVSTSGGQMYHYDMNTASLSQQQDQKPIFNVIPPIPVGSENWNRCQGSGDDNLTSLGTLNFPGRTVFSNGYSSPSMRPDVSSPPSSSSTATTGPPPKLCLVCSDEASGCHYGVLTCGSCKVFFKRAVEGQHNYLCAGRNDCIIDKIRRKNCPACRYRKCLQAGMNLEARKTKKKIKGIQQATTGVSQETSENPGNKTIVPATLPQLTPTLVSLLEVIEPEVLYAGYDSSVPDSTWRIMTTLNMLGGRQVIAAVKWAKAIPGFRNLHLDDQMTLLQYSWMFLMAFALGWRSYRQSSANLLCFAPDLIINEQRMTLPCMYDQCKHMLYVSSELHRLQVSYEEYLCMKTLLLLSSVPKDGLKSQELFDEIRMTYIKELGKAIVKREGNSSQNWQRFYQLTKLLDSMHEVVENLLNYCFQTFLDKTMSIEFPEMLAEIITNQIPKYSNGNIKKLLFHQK
# UniProt P23975, whole entry, looked up: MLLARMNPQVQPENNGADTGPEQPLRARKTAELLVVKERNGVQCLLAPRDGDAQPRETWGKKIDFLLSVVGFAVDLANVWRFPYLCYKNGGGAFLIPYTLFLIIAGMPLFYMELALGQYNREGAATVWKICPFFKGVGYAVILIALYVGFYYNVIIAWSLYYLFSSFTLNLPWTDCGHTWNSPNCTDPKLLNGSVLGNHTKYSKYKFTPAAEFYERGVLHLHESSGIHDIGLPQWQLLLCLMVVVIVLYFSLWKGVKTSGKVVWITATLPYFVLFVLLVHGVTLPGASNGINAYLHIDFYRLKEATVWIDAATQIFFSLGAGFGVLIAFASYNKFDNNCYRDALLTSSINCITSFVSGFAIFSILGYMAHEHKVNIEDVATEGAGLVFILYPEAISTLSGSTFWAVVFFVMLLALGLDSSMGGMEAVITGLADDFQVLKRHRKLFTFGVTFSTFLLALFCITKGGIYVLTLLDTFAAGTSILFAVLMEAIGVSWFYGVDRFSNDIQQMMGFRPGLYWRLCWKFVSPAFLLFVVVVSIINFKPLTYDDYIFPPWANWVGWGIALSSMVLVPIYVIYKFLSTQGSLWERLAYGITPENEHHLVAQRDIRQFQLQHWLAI
# UniProt P19793: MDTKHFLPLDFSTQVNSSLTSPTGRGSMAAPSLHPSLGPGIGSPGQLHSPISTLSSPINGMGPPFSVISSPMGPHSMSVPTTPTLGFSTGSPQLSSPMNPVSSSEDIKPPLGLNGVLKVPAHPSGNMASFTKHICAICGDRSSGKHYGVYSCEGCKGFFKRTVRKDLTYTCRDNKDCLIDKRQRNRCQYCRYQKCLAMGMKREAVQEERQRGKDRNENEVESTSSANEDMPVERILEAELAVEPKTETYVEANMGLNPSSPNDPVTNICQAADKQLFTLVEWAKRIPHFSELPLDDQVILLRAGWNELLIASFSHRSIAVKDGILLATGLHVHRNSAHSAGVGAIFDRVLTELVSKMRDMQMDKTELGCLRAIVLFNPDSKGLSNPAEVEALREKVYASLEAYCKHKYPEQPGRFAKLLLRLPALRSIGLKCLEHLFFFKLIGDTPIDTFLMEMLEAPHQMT
# UniProt P37231: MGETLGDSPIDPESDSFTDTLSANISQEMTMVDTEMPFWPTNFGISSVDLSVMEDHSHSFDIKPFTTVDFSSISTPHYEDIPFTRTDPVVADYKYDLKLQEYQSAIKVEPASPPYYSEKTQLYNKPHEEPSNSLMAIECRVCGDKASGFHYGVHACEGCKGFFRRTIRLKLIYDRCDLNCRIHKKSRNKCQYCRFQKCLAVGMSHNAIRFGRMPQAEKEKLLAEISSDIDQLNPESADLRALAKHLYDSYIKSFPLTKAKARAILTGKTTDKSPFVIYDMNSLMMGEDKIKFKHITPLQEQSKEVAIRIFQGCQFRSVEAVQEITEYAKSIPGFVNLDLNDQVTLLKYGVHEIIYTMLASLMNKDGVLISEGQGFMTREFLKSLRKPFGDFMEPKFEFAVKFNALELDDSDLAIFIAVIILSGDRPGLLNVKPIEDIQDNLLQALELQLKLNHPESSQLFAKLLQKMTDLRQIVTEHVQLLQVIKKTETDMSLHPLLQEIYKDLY
# UniProt P33261, whole entry, looked up: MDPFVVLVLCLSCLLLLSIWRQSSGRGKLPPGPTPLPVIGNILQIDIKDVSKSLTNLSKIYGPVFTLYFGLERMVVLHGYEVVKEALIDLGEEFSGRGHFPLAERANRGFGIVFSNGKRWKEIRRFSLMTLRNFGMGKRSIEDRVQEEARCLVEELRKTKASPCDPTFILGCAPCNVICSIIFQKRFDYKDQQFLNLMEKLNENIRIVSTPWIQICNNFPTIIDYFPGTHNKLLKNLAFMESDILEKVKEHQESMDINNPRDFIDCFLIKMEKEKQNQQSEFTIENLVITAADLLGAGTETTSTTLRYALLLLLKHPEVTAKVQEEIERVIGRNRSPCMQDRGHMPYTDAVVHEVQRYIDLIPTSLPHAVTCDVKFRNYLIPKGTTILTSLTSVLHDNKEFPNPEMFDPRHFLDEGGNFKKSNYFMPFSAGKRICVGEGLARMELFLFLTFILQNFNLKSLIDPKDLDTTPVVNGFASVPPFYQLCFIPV
# UniProt Q5TCH4: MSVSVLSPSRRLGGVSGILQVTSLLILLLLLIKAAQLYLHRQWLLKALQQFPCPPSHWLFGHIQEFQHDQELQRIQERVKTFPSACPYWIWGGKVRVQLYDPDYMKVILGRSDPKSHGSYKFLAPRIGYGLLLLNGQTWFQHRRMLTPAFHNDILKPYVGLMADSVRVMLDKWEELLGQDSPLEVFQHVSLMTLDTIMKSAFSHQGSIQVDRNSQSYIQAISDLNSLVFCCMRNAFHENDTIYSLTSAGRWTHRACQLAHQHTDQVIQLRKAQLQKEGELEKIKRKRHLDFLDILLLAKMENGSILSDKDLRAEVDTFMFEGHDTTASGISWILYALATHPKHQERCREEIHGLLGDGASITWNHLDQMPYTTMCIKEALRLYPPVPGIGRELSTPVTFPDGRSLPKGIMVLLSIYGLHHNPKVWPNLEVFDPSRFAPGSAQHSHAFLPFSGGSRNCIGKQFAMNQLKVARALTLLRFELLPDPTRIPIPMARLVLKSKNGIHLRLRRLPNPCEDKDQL
# UniProt P08659, whole entry, looked up: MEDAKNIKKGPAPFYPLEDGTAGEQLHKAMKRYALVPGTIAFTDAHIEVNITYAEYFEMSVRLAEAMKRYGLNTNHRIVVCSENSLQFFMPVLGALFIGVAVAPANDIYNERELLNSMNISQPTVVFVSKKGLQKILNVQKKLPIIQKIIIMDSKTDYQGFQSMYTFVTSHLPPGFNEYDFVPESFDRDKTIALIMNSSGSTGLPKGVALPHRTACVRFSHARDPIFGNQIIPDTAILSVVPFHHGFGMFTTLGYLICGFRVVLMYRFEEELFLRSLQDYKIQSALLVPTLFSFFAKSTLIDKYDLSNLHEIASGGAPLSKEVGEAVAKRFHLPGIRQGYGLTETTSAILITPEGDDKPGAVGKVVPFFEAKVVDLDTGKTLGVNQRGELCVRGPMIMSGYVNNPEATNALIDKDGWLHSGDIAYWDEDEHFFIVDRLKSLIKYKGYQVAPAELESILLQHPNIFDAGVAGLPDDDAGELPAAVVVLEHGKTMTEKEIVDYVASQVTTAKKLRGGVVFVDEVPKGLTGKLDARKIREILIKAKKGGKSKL
# For some assays here: Most of the hits are listed elsewhere, so they are rarer here than in the full data. Records with an inconclusive call do not appear. This is a selection; strong and weak results do not stand in their true shares. Some structures have more than one record in an assay (separate samples or runs), and their calls can disagree. Active and inactive are the calls of the source. The calls were made as follows, unless noted: active = hit-call score of the fitted dose curve at least 0.9, where 1 is the maximum; inactive = score below 0.9.
# Legend:
# [1] = molecular target: Glucocorticoid receptor (Homo sapiens) (UniProt P04150); test: NVS_NR_hGR: NovaScreen (NVS) Nuclear Receptor Binding Assay for human Glucocorticoid Receptor (GR) (AID 2283363; active = hit-call score of the fitted dose curve at least 0.9, where 1 is the maximum;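 also: activity is loss of specific radioligand binding signal relative to DMSO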)
# Procedure, shortened: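 Compounds first tested in duplicate at 25 uM, actives followed up in concentration series. Binding to extracted GR protein measured as competitive radioligand displacement, filter scintillation read 16 h post-dosing, normalised to DMSO.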
# [2] = molecular target: human Norepinephrine Transporter (NET), SLC6A2 (gene 6530) (UniProt P23975); test: NVS_TR_hNET: NovaScreen (NVS) Transporter Assay for human Norepinephrine Transporter (NET) (AID 2283377; active = hit-call score of the fitted dose curve at least 0.9, where 1 is the maximum;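 also: cell-free membrane protein extracted from CHO cells expressing human NET; displacement of radioligand from human NET seen as loss of scintillation signal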)
# Procedure, shortened: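 Single-concentration duplicate screen at 25 uM, then concentration-response for actives; displacement of specific radioligand from human NET in CHO membrane extracts, filter-based scintillation detection at 1 h relative to DMSO.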
# [3] = molecular target: Retinoic acid receptor RXR-alpha (Homo sapiens) (UniProt P19793); test: OT_NURR1_NURR1RXRa_0480: Odyssey Thera (OT) 8-hour HEK293T Protein Complementation Assay for Nurr1/retinoid X receptor (RXR) (AID 2283385; active = hit-call score of the fitted dose curve at least 0.9, where 1 is the maximum)
# Procedure, shortened: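 Interaction of bait and prey reconstitutes a functional reporter, whose fluorescence was measured in HEK293T cells dosed with compound for 8 hours. Signal gain relative to DMSO defined the single endpoint.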
# [4] = molecular target: Peroxisome proliferator-activated receptor gamma (Homo sapiens) (UniProt P37231); test: OT_PPARg_PPARgSRC1_1440: Odyssey Thera (OT) 24-hour Protein-Complementation Assay for Peroxisome Proliferator-activated Receptor Gamma/ SRC-1 Co-activator (AID 2283388; active = hit-call score of the fitted dose curve at least 0.9, where 1 is the maximum;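 also: nuclear to cytoplasmic ratio of reconstituted Venus YFP fluorescence in fixed imaged cells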)
# Procedure, shortened: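 Cells carrying the PPARg/SRC-1 fragment-complementation reporter receive compound for 24 hours, are fixed and counterstained with Draq5, then imaged. Increased nuclear relative to cytoplasmic YFP fluorescence above DMSO baseline indicates binding activity.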
# [5] = read-out: Cytochrome P450 (CYP1A1), CYP1A1 (gene 1543); test: LTEA_HepaRG_CYP1A1: Life Technologies and Expression Analysis (LTEA) Assay for Cytochrome P450 (CYP1A1) using HepaRG (AID 2283454); conditions: actives raise or lower the signal; mRNA level, 48 h
# Procedure, shortened: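 Using HepaRG cultures with 0.5% DMSO as vehicle, eight-concentration exposures (max 100 uM) lasted 48 h. Transcript levels were measured by TaqMan qRT-PCR and normalized to ACTB, GAPDH and POLR2A.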
# [6] = read-out: Bcl-2 (BAD) gene, BAD (gene 572); test: LTEA_HepaRG_BAD: Life Technologies and Expression Analysis (LTEA) Assay for Bcl-2 (BAD) gene using HepaRG (AID 2283469); conditions: actives raise or lower the signal; mRNA level, 48 h
# Procedure, shortened: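 Read-out: qRT-PCR of BAD mRNA, normalized to three housekeeping genes. Human HepaRG cultures got 48 h chemical exposure in 0.5% DMSO, duplicate eight-point half-log series topping at 100 uM. Gain or loss of signal fitted versus DMSO vehicle.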
# [7] = read-out: Alpha-fetoprotein (AFP) gene, AFP (gene 174); test: LTEA_HepaRG_AFP: Life Technologies and Expression Analysis (LTEA) Assay for Alpha-fetoprotein (AFP) gene using HepaRG (AID 2283472); conditions: actives raise or lower the signal; mRNA level, 48 h
# [8] = read-out: Cytochrome P450 2C19 (Homo sapiens) (UniProt P33261); test: LTEA_HepaRG_CYP2C19: Life Technologies and Expression Analysis (LTEA) Assay for CYP2C19 using HepaRG (AID 2283482); conditions: actives raise or lower the signal; mRNA level, 48 h
# Procedure, shortened: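 Endpoint: CYP2C19 mRNA change, bidirectional fit vs 0.5% DMSO. Cells: HepaRG, 48 h exposure, eight-point series topping at 100 uM. Quantitation: qRT-PCR normalized to ACTB, GAPDH, POLR2A.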
# [9] = read-out: Cytochrome P450 4A22 (Homo sapiens) (UniProt Q5TCH4); test: LTEA_HepaRG_CYP4A22: Life Technologies and Expression Analysis (LTEA) Assay for Cytochrome P450 4A22 (CYP4A22) using HepaRG (AID 2283495); conditions: actives raise or lower the signal; mRNA level, 48 h
# Procedure, shortened: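 Concentration-response (8 points, max 100 uM, 0.5% DMSO) in human HepaRG liver cells after 48 h exposure. CYP4A22 mRNA by TaqMan qRT-PCR with housekeeping-gene normalization.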
# [10] = read-out: matrix metalloproteinase-10 (MMP10), MMP10 (gene 4319); test: LTEA_HepaRG_MMP10: Life Technologies and Expression Analysis (LTEA) Assay for matrix metalloproteinase-10 (MMP10) using HepaRG (AID 2283517); conditions: actives raise or lower the signal; mRNA level, 48 h
# Procedure, shortened: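 Expression measured by TaqMan qRT-PCR with ACTB/GAPDH/POLR2A normalisation after 48 h chemical exposure of HepaRG cells. Eight half-log concentrations, top 100 uM, 0.5% DMSO vehicle, duplicates; gain or loss fitted against vehicle.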
# [11] = read-out: Protein phosphatase 2A (PPP2R4), PTPA (gene 5524); test: LTEA_HepaRG_PPP2R4: Life Technologies and Expression Analysis (LTEA) Assay for Protein phosphatase 2A (PPP2R4) using HepaRG (AID 2283522); conditions: actives raise or lower the signal; mRNA level, 48 h
# Procedure, shortened: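 Cells were plated, cultured 48 h, switched to serum-free induction medium, then dosed for 48 h (8 points, max 100 uM, 0.5% DMSO). RNA was isolated and PPP2R4 expression measured by TaqMan qRT-PCR.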
# [12] = read-out: UDP glucuronosyltransferase (UGT1A6), UGT1A6 (gene 54578); test: LTEA_HepaRG_UGT1A6: Life Technologies and Expression Analysis (LTEA) Assay for UDP glucuronosyltransferase (UGT1A6) using HepaRG (AID 2283539); conditions: actives raise or lower the signal; mRNA level, 48 h
# Procedure, shortened: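 Measures mRNA change in HepaRG hepatic cells exposed 48 h to chemicals (eight-point, maximum 100 uM, 0.5% DMSO vehicle) in serum-free induction medium. Expression normalized to endogenous controls; DMSO served as negative control and baseline.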
# [13] = read-out: X-box binding protein 1 (XBP1), XBP1 (gene 7494); test: LTEA_HepaRG_XBP1: Life Technologies and Expression Analysis (LTEA) Assay for X-box binding protein 1 (XBP1) using HepaRG (AID 2283540); conditions: actives raise or lower the signal; mRNA level, 48 h
# Procedure, shortened: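 Eight concentrations (half-log, highest 100 uM, 0.5% DMSO) tested in duplicate on HepaRG cells over 48 h in serum-free induction medium; qRT-PCR of XBP1 normalised to ACTB, GAPDH, POLR2A.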
# [14] = ATG_XTT_Cytotoxicity: Cytotoxicity Assessment in the Attagene TRANS-FACTORIAL HepG2 Assay (AID 2283584; active = hit-call score of the fitted dose curve at least 0.9, where 1 is the maximum)
# Procedure, shortened: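 24 h chemical exposure of reporter-transfected HepG2; XTT signal loss vs DMSO indicates cytotoxicity.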
# [15] = read-out: matrix metalloproteinase-1 (MMP1), MMP1 (gene 4312); test: LTEA_HepaRG_MMP1: Life Technologies and Expression Analysis (LTEA) Assay for matrix metalloproteinase-1 (MMP1) using HepaRG (AID 2283658); conditions: actives raise or lower the signal; mRNA level, 48 h
# Procedure, shortened: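 In this screen, human liver HepaRG cultures receive each chemical in duplicate for 48 h (top 100 uM, 0.5% DMSO). MMP1 expression is then quantified by TaqMan qRT-PCR with ACTB/GAPDH/POLR2A normalization.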
# [16] = system: Thyroperoxidase (TPO), gene 54314; test: CCTE_Simmons_AUR_rTPO: CCTE's Amplex UltraRed Assay for Thyroperoxidase (TPO) Inhibition, Simmons Lab (AID 2283662; active = hit-call score of the fitted dose curve at least 0.9, where 1 is the maximum;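 also: potency for loss of signal meaning inhibition of peroxidase activity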)
# Procedure, shortened: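 Endpoint is decreased Amplex UltraRed fluorescence after a 30-min, 37C reaction of rat thyroid microsomes with 300 uM H2O2. Eight test concentrations (5 nM–87.5 uM final) in 0.5% DMSO, three biological replicates each.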
# [17] = molecular target: Luciferin 4-monooxygenase (Photinus pyralis) (UniProt P08659); test: CCTE_Simmons_QuantiLum_inhib_2: CCTE's Firefly Luciferase Inhibition Assay, Simmons Lab (AID 2283767; active = hit-call score of the fitted dose curve at least 0.9, where 1 is the maximum;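 also: potency for inhibitors that lower luciferase luminescence relative to DMSO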)
# Procedure, shortened: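 First, 5 ng purified luciferase in phosphate buffer with BSA is dispensed per well. Next, test chemicals (5 nM to 87.5 uM final, 0.5% DMSO) are added and incubated 30 min at 37C in darkness. Finally, luciferin reagent is injected and luminescence read kinetically.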
# [18] = system: Sodium/Iodide Symporter (NIS), SLC5A5 (gene 6528); test: CPHEA_Stoker_NIS_Inhibition_RAIU: CPHEA's Radioactive Iodide Uptake (RAIU) Assay for Sodium/Iodide Symporter (NIS) Inhibition, Stoker and Laws Labs (AID 2283841; active = hit-call score of the fitted dose curve at least 0.9, where 1 is the maximum)
# Procedure, shortened: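 Test chemicals, six concentrations from 0.001 to 100uM in 0.5% DMSO, were co-incubated with carrier-free 125I (final 329pM) on hNIS-HEK293T-EPA monolayers in pH 7.4 HEPES-buffered HBSS. Plates stood 2 hours at room temperature, then were washed cold and counted.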
# [19] = CCTE_Shafer_MEA_dev_per_burst_spike_percent: CCTE's Neural Network Formation Assay for Percent of Spikes in a Burst, Shafer Lab (AID 2284032)
# Procedure, shortened: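 Value is trapezoidal AUC over recordings on days 5, 7, 9 and 12 of the well-mean fraction of spikes falling in single-electrode bursts; rat cortical cultures exposed continuously from plating, treatment renewed DIV 5 and 9, fitted downward against DMSO.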
# [20] = CCTE_Shafer_MEA_dev_interburst_interval_mean: CCTE's Neural Network Formation Assay for Mean Interburst Interval, Shafer Lab (AID 2284046);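 also: well-mean interburst interval of bursting electrodes as AUC over four recording days; curve fitted for decrease in interburst interval relative to DMSO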
# Procedure, shortened: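 Network formation assay in primary rat cortical cultures, exposed from DIV 0 to 12. Mean interburst interval per well, integrated as AUC over four recordings.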
smiles,measurement,setting,value
S=C(S)NCCNC(=S)S.[Mn+2].[S-]C([S-])=NCCN=C([S-])[S-].[Zn+2],AC50,[1],active: 5.75 µM
same,AC50,[2],active: 2.48 µM
same,outcome,[3],inactive
same,outcome,[4],inactive
same,AC50,[5],active: 211 nM
same,AC50,[6],active: 378 nM
same,AC50,[7],active: 1.02 µM
same,AC50,[8],active: 3.32 µM
same,AC50,[9],active: 1.15 µM
same,AC50,[10],active: 706 nM
same,AC50,[11],active: 1.18 µM
same,AC50,[12],active: 1.46 µM
same,AC50,[13],active: 1.44 µM
same,outcome,[14],inactive
same,outcome,[15],inactive
same,AC50,[16],active: 21.9 µM
same,AC50,[17],active: 18.5 µM
same,outcome,[18],inactive
same,outcome,[19],inactive
same,outcome,[20],inactive
